This is one part of the list.
Compound: Cc1cc(ccc1-c1ccccc1)C(=O)N1CCCN(CC1)C(=O)CCl [compound 10]
Assay: probe-labelled cysteine peptide fold change vs DMSO (competition) (log2 fold change); higher = less target engagement (more negative = stronger competition)
Details: THP-1, incubation time: 4 h
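Further: competitive profiling in live THP-1 cells: cysteine peptides tagged with an iodoacetamide desthiobiotin (IA-DTB) probe, intensity after compound treatment relative to DMSO-treated cells.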

By UniProt entry, the sequences of proteins in these tests, tags left out. Where a name states a change or a piece, a line headed by the entry shows the natural chain unless it says otherwise.
UniProt Q9BWU0: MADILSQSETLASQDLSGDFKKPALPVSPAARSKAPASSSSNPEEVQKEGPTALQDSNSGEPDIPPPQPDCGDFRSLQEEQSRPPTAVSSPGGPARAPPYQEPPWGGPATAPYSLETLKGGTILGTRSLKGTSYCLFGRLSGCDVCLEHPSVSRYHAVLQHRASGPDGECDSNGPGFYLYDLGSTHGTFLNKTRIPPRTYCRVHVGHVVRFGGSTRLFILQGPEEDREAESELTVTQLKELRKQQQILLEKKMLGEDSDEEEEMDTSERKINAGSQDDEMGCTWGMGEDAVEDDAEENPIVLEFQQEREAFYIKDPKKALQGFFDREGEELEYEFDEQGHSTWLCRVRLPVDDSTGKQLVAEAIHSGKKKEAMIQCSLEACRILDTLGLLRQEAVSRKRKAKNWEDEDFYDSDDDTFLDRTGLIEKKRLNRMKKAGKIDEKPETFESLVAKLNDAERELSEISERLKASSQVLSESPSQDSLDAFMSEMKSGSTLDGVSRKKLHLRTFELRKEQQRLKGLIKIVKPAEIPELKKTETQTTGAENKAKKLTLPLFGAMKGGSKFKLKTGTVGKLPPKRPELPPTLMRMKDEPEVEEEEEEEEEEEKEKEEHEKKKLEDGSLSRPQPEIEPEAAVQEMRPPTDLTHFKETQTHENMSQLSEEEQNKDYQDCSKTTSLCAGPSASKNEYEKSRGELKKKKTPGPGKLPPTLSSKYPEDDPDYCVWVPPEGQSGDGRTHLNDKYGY
UniProt Q9H2G2: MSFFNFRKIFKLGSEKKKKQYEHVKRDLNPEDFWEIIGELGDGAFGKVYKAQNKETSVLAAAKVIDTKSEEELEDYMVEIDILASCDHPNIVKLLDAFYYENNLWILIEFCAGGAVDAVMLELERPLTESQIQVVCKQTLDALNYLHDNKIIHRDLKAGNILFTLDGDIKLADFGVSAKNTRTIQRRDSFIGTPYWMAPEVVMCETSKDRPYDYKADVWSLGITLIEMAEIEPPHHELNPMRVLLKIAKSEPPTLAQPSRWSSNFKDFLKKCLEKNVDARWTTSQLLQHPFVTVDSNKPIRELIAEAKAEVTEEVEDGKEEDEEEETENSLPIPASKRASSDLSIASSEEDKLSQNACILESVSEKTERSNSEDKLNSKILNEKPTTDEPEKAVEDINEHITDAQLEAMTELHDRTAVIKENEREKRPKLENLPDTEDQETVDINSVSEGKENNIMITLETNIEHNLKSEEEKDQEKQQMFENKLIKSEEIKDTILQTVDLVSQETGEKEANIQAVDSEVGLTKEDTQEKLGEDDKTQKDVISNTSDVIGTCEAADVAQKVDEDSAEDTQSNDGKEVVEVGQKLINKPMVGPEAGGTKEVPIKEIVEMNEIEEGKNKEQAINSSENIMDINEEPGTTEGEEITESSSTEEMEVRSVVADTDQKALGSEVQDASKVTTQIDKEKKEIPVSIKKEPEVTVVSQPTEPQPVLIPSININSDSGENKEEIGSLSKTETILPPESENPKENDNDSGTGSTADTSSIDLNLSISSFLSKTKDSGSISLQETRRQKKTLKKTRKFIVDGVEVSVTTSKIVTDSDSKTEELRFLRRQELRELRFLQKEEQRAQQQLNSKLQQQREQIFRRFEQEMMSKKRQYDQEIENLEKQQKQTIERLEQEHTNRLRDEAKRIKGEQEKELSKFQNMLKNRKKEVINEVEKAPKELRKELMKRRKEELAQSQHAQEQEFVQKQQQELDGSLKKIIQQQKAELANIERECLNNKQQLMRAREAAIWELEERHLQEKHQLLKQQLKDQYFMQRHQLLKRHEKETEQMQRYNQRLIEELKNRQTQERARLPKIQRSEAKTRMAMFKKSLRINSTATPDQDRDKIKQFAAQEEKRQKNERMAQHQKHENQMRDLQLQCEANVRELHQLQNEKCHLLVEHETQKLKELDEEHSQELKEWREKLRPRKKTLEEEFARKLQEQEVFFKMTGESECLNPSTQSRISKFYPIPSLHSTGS
UniProt Q96SB8: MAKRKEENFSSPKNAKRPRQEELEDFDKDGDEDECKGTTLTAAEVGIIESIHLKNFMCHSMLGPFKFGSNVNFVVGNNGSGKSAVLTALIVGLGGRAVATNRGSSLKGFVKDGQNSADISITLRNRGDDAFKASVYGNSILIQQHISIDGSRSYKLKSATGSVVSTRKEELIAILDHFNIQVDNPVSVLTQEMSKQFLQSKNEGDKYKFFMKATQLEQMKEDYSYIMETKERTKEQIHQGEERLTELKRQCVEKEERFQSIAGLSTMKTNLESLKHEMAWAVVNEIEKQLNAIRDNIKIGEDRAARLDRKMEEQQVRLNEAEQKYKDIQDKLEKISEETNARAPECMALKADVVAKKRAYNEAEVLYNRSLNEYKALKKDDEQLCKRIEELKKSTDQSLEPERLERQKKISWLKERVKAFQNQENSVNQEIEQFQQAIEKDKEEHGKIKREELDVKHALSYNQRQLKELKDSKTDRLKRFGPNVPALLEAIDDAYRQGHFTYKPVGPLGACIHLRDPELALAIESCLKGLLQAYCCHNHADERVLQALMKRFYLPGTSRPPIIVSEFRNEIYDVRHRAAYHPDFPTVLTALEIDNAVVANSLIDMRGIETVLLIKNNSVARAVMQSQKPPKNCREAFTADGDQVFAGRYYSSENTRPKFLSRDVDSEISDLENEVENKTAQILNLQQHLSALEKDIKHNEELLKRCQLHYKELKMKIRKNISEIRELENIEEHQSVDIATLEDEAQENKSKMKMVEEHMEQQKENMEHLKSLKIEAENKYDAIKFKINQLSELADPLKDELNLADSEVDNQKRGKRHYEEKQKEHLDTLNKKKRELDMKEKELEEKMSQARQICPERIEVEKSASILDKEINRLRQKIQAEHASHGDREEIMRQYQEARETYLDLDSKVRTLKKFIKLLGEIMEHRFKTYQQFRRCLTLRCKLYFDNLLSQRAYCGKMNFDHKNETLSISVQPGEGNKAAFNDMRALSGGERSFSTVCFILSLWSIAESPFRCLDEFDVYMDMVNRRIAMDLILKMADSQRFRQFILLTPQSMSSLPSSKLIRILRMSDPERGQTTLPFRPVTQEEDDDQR
UniProt Q68D06: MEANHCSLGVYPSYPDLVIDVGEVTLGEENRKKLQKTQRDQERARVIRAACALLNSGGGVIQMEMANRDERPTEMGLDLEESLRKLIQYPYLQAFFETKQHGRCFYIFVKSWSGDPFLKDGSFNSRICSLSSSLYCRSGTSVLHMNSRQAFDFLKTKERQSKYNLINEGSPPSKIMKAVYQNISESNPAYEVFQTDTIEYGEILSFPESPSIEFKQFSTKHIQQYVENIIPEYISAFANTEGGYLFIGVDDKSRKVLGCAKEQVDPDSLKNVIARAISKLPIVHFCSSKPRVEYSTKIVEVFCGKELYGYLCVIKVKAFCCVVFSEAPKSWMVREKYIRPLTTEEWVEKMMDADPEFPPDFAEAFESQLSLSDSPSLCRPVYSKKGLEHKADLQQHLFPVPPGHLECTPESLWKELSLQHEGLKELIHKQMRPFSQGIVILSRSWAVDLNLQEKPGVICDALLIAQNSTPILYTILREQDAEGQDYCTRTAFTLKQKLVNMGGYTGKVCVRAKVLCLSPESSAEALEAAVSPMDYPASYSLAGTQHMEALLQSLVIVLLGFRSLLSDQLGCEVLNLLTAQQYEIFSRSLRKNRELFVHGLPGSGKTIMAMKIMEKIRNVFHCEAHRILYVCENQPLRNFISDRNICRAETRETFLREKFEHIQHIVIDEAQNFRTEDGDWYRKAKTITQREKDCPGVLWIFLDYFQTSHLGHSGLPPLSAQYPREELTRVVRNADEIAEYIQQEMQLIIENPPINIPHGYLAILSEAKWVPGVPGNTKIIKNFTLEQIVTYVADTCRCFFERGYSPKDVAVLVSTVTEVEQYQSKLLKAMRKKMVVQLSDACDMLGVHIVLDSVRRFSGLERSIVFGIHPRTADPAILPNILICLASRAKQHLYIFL
UniProt Q7Z7L1: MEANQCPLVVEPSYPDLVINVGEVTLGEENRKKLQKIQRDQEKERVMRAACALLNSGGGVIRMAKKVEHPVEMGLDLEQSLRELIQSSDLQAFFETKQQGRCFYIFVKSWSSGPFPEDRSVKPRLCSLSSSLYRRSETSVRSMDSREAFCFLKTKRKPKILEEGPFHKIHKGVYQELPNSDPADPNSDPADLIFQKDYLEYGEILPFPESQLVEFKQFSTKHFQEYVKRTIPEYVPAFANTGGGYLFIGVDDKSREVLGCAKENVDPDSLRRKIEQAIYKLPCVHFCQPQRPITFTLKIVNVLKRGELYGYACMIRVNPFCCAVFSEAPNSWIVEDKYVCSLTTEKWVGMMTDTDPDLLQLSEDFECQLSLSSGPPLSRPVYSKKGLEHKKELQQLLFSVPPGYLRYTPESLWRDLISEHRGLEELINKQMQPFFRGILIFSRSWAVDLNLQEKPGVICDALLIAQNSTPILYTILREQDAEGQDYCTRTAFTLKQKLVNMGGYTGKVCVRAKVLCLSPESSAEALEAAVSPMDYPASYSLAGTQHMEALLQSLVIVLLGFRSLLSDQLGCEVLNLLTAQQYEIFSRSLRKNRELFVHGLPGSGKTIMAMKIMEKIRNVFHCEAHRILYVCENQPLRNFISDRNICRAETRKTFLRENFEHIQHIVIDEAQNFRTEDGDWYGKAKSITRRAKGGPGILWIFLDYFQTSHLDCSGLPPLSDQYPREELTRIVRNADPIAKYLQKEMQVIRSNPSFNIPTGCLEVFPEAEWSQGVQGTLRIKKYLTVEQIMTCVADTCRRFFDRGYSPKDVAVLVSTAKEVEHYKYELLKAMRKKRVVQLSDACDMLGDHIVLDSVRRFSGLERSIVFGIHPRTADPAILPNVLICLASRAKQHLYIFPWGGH

Target	probe-labelled cysteine peptide fold change (10 µM)	probe-labelled cysteine peptide fold change (50 µM)
SLC4A1AP_Q9BWU0_200_LSGCDVCLEHPSVSR (UniProt Q9BWU0)	-0.124	-0.072
SLK_Q9H2G2_552_DVISNTSDVIGTCEAADVAQK (UniProt Q9H2G2)	-0.0425	-0.0714
SMC6_Q96SB8_1013_CLDEFDVYMDMVNRR (UniProt Q96SB8)	0.153	0.134
SLFN13_Q68D06_631_ILYVCENQPLR (UniProt Q68D06)	0.0297	0.0636
SLFN11_Q7Z7L1_322_VNPFCCAVFSEAPNSWIVEDK (UniProt Q7Z7L1)	0.382	0.575

— the supplement of paper PMC12067093, “Discovery and optimisation of a covalent ligand for TRIM25 and its application to targeted protein ubiquitination” (Chemical Science, 2025)
